Results are given in words; binding and its absence hold for the method and conditions named. In cells and extracts the contact can be indirect. Some binding calls cover weakened binding; strength is not graded here.
Biological target: Domino (D. melanogaster (endogenous in embryos)) (UniProt Q9NDJ2)
Assay: co-IP; Drosophila embryonic nuclear extracts (about 200 ug protein); antibodies coupled to Protein-G Agarose; 20 mM Tris-HCl pH 7.9, 0.5 mM EDTA, 150 mM NaCl, 10% glycerol, 3 h at 4 C; washes with 0.01% NP-40; western blot; dRsf-1/ISWI also with 80 ug/ml ethidium bromide

By UniProt entry, the sequences of proteins in these tests, tags left out.
UniProt Q9NDJ2: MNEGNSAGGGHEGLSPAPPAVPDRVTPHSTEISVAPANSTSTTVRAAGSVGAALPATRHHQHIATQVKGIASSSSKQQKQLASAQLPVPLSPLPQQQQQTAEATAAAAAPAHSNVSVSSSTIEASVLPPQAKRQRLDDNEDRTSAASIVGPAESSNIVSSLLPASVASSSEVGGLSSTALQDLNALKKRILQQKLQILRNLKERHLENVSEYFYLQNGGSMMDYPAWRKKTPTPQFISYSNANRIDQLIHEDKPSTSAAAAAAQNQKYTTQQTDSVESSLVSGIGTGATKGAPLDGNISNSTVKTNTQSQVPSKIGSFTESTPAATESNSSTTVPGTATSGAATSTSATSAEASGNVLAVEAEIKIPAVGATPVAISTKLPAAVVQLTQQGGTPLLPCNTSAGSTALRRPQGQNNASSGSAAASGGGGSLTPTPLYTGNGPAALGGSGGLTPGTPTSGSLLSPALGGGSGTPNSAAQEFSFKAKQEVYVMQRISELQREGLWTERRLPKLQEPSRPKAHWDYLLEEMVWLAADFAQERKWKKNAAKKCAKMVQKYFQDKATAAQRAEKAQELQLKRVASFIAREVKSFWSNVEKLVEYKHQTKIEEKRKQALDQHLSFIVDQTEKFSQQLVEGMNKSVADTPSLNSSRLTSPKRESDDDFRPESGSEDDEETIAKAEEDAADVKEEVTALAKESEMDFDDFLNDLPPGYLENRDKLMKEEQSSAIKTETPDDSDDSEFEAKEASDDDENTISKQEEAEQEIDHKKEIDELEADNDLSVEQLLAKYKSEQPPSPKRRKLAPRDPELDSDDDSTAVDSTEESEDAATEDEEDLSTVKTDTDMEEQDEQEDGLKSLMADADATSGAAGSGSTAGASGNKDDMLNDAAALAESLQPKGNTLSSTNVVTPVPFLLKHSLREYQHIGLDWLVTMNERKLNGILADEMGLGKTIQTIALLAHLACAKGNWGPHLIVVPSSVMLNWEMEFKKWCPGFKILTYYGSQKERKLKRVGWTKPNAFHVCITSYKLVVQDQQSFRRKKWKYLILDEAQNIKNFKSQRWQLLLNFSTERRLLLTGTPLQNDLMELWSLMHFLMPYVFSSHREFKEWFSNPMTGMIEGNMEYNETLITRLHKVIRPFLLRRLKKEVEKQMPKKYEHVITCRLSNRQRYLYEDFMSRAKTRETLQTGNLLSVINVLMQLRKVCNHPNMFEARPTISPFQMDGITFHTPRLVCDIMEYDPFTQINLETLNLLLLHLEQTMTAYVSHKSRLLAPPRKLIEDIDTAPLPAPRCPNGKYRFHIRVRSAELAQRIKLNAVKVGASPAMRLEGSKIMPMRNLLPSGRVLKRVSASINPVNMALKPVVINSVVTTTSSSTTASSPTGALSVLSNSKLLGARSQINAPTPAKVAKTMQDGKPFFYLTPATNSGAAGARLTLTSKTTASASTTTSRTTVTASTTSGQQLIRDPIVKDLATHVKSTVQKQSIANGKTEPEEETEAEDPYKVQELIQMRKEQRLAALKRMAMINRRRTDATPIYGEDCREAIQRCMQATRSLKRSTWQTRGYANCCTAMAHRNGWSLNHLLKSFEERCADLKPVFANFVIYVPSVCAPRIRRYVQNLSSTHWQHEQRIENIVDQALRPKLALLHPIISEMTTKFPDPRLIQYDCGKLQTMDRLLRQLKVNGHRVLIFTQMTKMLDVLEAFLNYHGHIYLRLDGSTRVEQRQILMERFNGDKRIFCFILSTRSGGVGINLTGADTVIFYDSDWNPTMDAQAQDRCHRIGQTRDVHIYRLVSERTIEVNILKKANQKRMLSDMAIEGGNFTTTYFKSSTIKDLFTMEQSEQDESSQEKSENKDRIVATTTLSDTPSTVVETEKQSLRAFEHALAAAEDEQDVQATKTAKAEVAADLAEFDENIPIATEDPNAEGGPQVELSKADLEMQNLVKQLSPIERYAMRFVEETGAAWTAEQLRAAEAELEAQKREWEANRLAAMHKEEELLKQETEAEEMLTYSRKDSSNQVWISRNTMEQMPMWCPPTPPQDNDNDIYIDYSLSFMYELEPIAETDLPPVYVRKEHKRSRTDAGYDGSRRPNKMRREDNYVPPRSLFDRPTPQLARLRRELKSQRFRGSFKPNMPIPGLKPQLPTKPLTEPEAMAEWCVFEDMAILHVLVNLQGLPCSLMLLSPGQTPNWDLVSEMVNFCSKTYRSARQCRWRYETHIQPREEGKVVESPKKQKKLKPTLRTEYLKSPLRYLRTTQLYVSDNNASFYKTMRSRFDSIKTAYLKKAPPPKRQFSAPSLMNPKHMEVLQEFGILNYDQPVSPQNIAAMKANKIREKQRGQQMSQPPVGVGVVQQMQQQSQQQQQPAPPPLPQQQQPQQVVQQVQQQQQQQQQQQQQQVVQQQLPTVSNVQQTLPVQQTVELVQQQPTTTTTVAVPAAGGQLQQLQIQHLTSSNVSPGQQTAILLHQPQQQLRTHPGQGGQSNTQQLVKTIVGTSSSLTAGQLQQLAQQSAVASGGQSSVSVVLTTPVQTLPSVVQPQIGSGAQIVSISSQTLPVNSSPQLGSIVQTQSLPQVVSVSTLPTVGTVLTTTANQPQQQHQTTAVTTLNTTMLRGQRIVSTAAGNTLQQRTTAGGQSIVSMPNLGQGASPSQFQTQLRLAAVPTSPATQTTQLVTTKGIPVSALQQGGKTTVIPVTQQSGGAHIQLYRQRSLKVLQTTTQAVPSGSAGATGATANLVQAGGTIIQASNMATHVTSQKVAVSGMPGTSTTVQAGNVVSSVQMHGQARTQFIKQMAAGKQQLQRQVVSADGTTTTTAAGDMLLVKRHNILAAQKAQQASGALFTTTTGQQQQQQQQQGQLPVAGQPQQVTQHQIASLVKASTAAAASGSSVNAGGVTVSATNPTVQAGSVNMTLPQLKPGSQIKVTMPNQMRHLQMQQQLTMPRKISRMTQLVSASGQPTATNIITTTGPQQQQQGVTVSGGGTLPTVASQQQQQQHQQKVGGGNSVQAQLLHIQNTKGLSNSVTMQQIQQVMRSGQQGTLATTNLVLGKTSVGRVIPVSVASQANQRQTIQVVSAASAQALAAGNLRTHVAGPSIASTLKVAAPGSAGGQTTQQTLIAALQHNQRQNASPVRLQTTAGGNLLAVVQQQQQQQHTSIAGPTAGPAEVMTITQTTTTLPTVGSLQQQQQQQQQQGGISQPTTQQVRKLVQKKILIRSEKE
UniProt Q24368: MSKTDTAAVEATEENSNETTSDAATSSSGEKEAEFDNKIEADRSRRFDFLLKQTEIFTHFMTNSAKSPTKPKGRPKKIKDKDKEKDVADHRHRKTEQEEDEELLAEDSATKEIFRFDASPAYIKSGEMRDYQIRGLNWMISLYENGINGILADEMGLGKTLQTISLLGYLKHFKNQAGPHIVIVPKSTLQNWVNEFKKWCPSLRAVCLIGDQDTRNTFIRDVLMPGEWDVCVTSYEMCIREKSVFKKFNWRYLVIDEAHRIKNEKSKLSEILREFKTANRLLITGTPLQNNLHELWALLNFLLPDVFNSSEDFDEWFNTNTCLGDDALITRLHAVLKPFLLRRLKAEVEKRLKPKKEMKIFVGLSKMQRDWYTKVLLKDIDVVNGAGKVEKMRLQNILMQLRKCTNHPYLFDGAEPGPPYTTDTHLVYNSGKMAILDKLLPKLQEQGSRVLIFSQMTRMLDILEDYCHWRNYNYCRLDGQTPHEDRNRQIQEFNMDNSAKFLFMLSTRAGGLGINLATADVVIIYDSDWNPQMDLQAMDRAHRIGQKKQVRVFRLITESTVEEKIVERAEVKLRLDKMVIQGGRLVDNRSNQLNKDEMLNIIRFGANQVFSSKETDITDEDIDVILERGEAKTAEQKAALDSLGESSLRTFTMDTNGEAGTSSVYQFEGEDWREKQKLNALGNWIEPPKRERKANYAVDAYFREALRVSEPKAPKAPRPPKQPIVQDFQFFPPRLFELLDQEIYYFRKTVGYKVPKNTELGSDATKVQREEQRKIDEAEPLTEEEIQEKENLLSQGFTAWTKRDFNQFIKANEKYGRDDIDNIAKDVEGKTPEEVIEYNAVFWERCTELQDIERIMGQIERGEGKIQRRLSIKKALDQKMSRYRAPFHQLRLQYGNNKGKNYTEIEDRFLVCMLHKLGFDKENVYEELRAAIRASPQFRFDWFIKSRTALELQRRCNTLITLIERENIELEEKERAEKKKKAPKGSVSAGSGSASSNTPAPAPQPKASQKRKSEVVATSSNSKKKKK

binding: binds
Substance: ISWI (from UniProt Q24368 1-1027)
